Literature values, collected in PMC7617459, “Comparative Evaluation and Profiling of Chemical Tools for the Nuclear Hormone Receptor Family 2” (ACS pharmacology & translational science, 2025).

Assays:
TLX = details: reporter gene assay; read-out: Gal4-TLX EC50; cited from earlier work
full-length TLX = details: cited from earlier work
TLX LBD = details: ITC; cited from earlier work

## CC(C)NCC(O)COc1cccc2ccccc12 (stereo not drawn) [compound 18, propranolol]
TLX
  EC50: 32 µM
full-length TLX
  EC50: 37 µM
TLX LBD
  Kd: 0.5 µM
